In paper PMC10899400:
Construct, isoform or probe ends are uncertain for at least one entry. Weaker means in comparison with the reference protein, sequence or condition of that experiment.

By UniProt entry, the sequences of proteins in these tests, tags left out. Residues count along the entry.
UniProt Q07666, 96-260: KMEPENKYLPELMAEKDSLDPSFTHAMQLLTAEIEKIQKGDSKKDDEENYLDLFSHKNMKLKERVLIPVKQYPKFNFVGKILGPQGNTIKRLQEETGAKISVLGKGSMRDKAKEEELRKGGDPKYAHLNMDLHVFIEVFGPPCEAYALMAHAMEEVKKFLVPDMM

Biological target: Sam68 QUA1-KH (UniProt Q07666)
Experiment: EMSA
Conditions: 40 uM RNA, 10-200 uM protein, weaker than unmodified RNA; 2'-OCF3 at A20; recombinant protein; residues 96-260; protein details: N-terminal His6-TEV (pLEICS-01), TEV-treated; label: 19F (2'-OCF3 at A20)

UUACAGGGUUUUAGACAAAAU [RNA3 (2'-OCF3-A20)]
binding result: binds more weakly
